Experimental findings from PMC10847424 are described below.

By UniProt entry, the sequences of proteins in these tests, tags left out. Residues count along the entry.
UniProt Q62318: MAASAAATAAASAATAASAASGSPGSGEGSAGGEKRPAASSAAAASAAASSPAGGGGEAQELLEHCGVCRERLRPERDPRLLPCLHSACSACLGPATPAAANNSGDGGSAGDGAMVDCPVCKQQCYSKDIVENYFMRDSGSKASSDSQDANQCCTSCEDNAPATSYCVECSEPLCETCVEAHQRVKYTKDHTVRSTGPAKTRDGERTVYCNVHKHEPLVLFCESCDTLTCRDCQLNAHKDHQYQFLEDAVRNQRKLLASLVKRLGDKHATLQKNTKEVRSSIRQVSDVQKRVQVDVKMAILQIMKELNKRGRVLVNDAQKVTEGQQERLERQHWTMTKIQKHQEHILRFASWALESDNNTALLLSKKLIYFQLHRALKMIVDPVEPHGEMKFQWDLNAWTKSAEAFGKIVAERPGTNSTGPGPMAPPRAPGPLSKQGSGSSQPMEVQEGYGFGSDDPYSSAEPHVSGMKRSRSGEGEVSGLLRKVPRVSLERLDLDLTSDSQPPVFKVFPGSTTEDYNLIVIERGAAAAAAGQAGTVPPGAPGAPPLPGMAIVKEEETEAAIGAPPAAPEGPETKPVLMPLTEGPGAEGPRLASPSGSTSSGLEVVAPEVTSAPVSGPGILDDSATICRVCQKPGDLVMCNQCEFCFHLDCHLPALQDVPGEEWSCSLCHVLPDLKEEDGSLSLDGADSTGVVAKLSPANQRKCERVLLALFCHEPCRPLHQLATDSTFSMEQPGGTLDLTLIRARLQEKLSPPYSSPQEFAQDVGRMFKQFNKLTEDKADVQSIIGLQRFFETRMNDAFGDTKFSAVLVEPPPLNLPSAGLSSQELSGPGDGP
UniProt P14625, residues 22-803: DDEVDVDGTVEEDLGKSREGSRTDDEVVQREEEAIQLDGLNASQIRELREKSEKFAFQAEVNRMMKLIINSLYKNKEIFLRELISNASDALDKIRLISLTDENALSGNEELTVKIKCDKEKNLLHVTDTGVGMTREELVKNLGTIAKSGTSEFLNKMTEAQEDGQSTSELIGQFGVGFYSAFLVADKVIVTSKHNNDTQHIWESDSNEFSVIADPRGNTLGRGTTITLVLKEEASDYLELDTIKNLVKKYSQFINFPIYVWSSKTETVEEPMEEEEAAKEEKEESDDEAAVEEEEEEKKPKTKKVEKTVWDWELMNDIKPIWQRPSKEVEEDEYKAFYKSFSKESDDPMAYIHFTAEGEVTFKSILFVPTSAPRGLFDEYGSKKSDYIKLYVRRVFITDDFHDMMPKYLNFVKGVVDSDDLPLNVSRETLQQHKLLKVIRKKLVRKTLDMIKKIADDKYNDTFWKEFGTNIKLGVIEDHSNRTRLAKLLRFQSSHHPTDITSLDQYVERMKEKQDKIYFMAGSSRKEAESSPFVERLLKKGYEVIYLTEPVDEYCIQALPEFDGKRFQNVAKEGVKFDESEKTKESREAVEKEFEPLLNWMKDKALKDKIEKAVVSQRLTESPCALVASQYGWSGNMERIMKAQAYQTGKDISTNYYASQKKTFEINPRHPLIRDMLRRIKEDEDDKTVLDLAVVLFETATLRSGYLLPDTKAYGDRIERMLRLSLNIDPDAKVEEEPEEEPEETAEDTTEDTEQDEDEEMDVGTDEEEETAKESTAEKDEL
UniProt P08113, residues 22-802: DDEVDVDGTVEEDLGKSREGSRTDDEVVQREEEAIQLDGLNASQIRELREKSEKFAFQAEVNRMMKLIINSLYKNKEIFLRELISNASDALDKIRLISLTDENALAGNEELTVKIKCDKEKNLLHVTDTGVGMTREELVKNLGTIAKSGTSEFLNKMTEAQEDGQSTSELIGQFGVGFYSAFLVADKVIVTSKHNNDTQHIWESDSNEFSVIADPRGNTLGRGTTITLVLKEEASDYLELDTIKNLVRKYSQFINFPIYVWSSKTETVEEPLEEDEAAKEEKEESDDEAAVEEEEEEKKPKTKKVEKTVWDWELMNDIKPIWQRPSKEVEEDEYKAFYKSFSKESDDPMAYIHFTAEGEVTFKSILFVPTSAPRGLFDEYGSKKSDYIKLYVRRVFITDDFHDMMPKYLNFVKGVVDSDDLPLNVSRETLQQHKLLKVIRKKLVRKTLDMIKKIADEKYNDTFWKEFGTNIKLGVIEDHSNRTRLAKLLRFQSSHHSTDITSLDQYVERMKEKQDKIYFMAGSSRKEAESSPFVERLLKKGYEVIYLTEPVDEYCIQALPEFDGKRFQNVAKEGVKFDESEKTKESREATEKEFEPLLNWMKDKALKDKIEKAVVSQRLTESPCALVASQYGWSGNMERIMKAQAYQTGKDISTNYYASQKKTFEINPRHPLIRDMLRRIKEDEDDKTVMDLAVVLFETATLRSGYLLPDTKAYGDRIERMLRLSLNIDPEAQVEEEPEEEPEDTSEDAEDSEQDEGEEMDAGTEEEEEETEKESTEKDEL

The target of experiment [1] is HA-Trim28 (UniProt Q62318). The experiment can be described thus: co-IP; exogenous co-IP in HEK293 lysates (WT, gp96 knockout, with gp96 overexpressed, or stably expressing Eomes or Flag-gp96); anti-HA, anti-flag or anti-myc beads 3 h, washes with 20 mM Tris-HCl, 125 mM NaCl, 5 mM MgCl2, 0.2 mM EDTA, 0.1% NP-40.
For experiment [2], the target named is T1, His-Eomes (UniProt O54839).
T1 sequence: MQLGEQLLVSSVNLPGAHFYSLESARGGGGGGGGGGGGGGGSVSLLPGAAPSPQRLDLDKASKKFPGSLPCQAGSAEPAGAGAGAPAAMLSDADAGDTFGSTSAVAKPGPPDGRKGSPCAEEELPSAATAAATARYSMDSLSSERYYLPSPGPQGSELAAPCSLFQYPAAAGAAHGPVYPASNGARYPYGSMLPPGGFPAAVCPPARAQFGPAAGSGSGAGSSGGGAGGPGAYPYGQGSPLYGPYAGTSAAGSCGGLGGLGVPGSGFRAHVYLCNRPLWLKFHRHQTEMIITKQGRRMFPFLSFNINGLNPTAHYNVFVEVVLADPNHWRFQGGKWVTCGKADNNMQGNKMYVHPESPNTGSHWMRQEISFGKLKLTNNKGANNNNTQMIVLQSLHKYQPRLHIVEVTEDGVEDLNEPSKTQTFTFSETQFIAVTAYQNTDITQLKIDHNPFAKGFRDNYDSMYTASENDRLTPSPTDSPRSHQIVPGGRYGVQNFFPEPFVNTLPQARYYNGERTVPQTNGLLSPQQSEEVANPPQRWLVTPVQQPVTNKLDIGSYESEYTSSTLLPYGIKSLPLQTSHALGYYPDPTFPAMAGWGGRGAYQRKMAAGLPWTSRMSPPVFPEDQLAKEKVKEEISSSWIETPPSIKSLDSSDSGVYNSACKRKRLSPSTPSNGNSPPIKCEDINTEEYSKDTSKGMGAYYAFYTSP
Nature of the experiment: co-IP; WT and gp96 knockout 293 cells co-transfected with His-Eomes and GFP-P62, treated as in Fig. 6H (CQ or MG132), IP-Western.

The target of experiment [3] is T2, Eomes (endogenous, mouse NK cells) (mouse (endogenous in primary NK cells)) (UniProt O54839).
T2 sequence: T1 sequence
Nature of the experiment: co-IP; immunoprecipitation from cytosol, nucleus and total membrane (ER and plasma membrane) fractions of NK cells.

In experiment [4] the target is Trim28 (endogenous, mouse NK cells) (mouse (endogenous in primary NK cells)) (UniProt Q62318). The experiment is described as above.

These are yes or no findings as the source states them, for the method shown. In cells and extracts the contact can be indirect. Some binding calls cover weakened binding; strength is not graded here. For some of these results: Where a sequence is shown, tags or fusion partners need not be part of it.

As to Flag-gp96 (from UniProt P14625 22-803), the binding result in experiment [1] is given as “binds”.
Take GFP-P62 (from UniProt Q13501 1-440): the binding entry in experiment [2] is listed as “binds”.
As for “gp96 (endogenous, NK cells) (from UniProt P08113 22-802)”, the binding entry in experiment [3] and in experiment [4] was “binds” in each case.
